Source: US20090203594A1, “Anticancer peptide” (priority 2004, published 2009)
For at least one compound, name, drawing or mass did not settle the structure. No end group written: not given here.

Test system: colon cancer line, CaCo-2
Test: WST viability assay, colon cancer line
Format: cell-based
Experimental: For each cell line, the protocol was the same for determining the effects of pDBD*4R9.
Cells were plated in equal numbers and washed free of growth medium.
The peptide pDBD*4R9 was then added to the cells for one hour, after which they were returned to growth medium.
At a suitable interval thereafter, they were assayed for viability by use of the WST assay (described above), which measures the ability of viable cells' mitochondria to metabolize and therefore change the color of a water soluble tetrazolium dye (WST). By measuring the absorbance of the color, one has a quantitative correlate of viability: More absorbance=more viable cells.

Sequence: RRRRRRRRRYLCAGRNDCIIAIKFEEKTAQHAAIENVFRLE (cysteines drawn unpaired) [pDBD*4R9]
- (viability) (Expt 1, 25 microM, relative to control cells 100%): (24%)
- (viability) (Expt 1, 50 microM, relative to control cells 100%): (48%)
- (viability) (Expt 2, 100 microM, relative to control 100%): (46%)
